Laboratory results as given in patent US20200339690A1.

Legend:
human LILRB2 (human) [1] = test: description of the treatments in the histoculture example
[2] = target: Cyno Monocytes / Cyno Neutrophils (Macaca fascicularis); test: flow cytometry, cyno whole blood, biotinylated mAb 25 ug/mL
human LILRB2 (human) [3] = test: summary of the chimeric antibody screens
[4] = target: Rhesus Monocytes / Rhesus Neutrophils (Macaca mulatta); test: flow cytometry, rhesus whole blood, biotinylated mAb 25 ug/mL
[5] = target: Rhesus Monocytes / Rhesus Neutrophils (Macaca mulatta); test: flow cytometry, rhesus whole blood
[6] = target: Cyno Monocytes / Cyno Neutrophils (Macaca fascicularis); test: flow cytometry, cyno whole blood, biotinylated mAb
[7] = target: Cyno Monocytes / Cyno Neutrophils (Macaca fascicularis); test: flow cytometry, cyno whole blood
[8] = target: Rhesus Monocytes / Rhesus Neutrophils (Macaca mulatta); test: flow cytometry, rhesus whole blood, biotinylated mAb
human LILRB2 (human) [9] = test: BLI ForteBio Octet Red96; antibody on anti-human capture sensor, LILRB2 at 50 nM and 5 nM

B1: J-19 (antibody, human IgG4 S228P, kappa, V domains shown)
VH: QVTLKESGPGILQPSHTLSLTCSFSGFSLNTYAMGVSWIRQPSGKGLEWLASIWWNGNKYNNPSLKSRLTVSKDTSNNQAFLKVTSVDTADTATYYCAHSRIIRFTDYVMDAWGQGASVTVSS
VL: DIQMTQSPASLSTFLGEPVTIECRASEDIYNDLAWYQQKPGKSPQLLIYNANSLHTGVPSRFSGSGSGTQYSLKINSLQSEDVASYFCQQYYDYPLTFGSGTKLEIKR
- binding (human LILRB2 (human) [1]): binds
- binding [2]: binds
- binding (human LILRB2 (human) [3]): binds
- binding [4]: binds

B2: J-11 (antibody, human IgG4 S228P, kappa, V domains shown)
VH: QVQLQQSGAELMKPGASVKLSCKATGYILTGYWIEWVKQRPGHGLEWIGEILPGSGSTNYNENFKGKATFTADTSSNTAYMQLSSLTTEDSAIYYCARAVLGYFDYWGQGTTLTVSS
VL: DIVMTQSHKFMSTSVGDRVSITCKASQDVSTAVAWYQQKPGQSPKLLIYWASTRHTGVPDRFTGSGSGTDYTLTISSVQAEDLALYYCHQHYSTYTFGGGTKLEIKR
- binding (human LILRB2 (human) [1]): binds
- binding [5]: no binding (tested: 25 ug/mL)
- binding [6]: no binding (tested: 25 ug/mL)
- binding (human LILRB2 (human) [3]): binds
- binding [7]: no binding (tested: 25 ug/mL)
- binding [8]: no binding (tested: 25 ug/mL)

B3: J-17 (antibody, human IgG4 S228P, kappa, V domains shown)
VH: QIQLVQSGPELKKPGETVKISCKASGYTFTTYGLSWVKQTPGKGLKWMGWINTYSGVPTYTDDFKGRFAFSLETSASTAYLQINNLKNEDTATYFCARPYDFDQVGFAYWGQGTLVTVSA
VL: SIVMTQTPKFLLVSAGDRVSITCKASQTVSSDVAWYQQKAGQSPKLLIYYASNRYTGVPDRFTGSGYGTDFTFTISTVQAEDLAVYFCQQDYSSPFTFGGGSKLEIKR
- binding (human LILRB2 (human) [1]): binds
- binding [5]: no binding (tested: 25 ug/mL)
- binding [6]: no binding (tested: 25 ug/mL)
- binding (human LILRB2 (human) [3]): binds
- binding [7]: no binding (tested: 25 ug/mL)
- binding [8]: no binding (tested: 25 ug/mL)

B4: J-04 (antibody, human IgG4 S228P, kappa, V domains shown)
VH: QVQLQQSGAELVRPGASVTLSCKASGYTFADYEIHWVKQTPVHGLEWIGAIDPETGGTAYNQKFKGKAILTADKSSSTAYMELRSLTSEDSAVYYCTRYYDYDDAMDYWGQGTSVTVSS
VL: QIVLTQSPAIMSASPGEKVTMTCSASSSVSFMHWYQQKSGTSPKRWIYGTSKLASGVPARFSGSGSGTSYSLTISSMEAEDAATYYCQQWNGNPFTFGSGTKLETKR
- binding (human LILRB2 (human) [1]): binds
- binding (human LILRB2 (human) [3]): binds

B5: J-03 (antibody, human IgG4 S228P, kappa, V domains shown)
VH: QVQLQQSGAELVRPGASVTLSCKASGYKFTDYEMHWVKQTPVHGLEWIGAIDPETNGTAYNKKFKGKAILTADKSSSTAYMELRSLTSEDSAVYYCTRGDYDFSAWFAYWGQGTLVTVSA
VL: DIVLTQSPASLAVSLGQRATISCRASESVDNYDISFMHWYQQKPGQPPKLLIYRASNLESGIPARFSGSGSRTDFTLTINPVETDDVATYYCQQSNKDPRTFGGGTKLEIKR
- binding (human LILRB2 (human) [3]): binds

B6: J-19.h6 (antibody, human IgG4 S228P, kappa, V domains shown)
VH: QITLKESGPTLVKPTQTLTLTCTFSGFSLNTYAMGVSWIRQPPGKALEWLASIWWNGNKYNNPSLKSRLTVTKDTSKNQVVLTMTNMDPVDTATYYCAHSRIIDFTDYVMDAWGQGTLVTVSS
VL: DIQMTQSPSSLSTSVGDRVTITCRASEDIYNDLAWYQQKPGKAPKLLIYNANSLHTGVASRFSGSGSGTDFTFTISSLQPEDVATYFCQQYYDYPLTFGQGTKLEIKR
- binding (human LILRB2 (human) [9]): binds

B7: J-19.h7 (antibody, human IgG4 S228P, kappa, V domains shown)
VH: QITLKESGPTLVKPTQTLTLTCTFSGFSLNTYAMGVSWIRQPPGKALEWLASIWWNGNKYNNPSLKSRLTVTKDTSKNQVVLTMTNMDPVDTATYYCAHSRIIEFTDYVMDAWGQGTLVTVSS
VL: DIQMTQSPSSLSTSVGDRVTITCRASEDIYNDLAWYQQKPGKAPKLLIYNANSLHTGVASRFSGSGSGTDFTFTISSLQPEDVATYFCQQYYDYPLTFGQGTKLEIKR
- binding (human LILRB2 (human) [9]): binds

Results are given in words; binding and its absence hold for the method and conditions named. For part of these data: Binding can be weak; no strength is given.
